{"source": "patent US11813305B2", "about": "“Endoplasmic reticulum stress as a predictive tool in cancer therapy and a combination therapy for the treatment of cancer” (IMMUNE SYSTEM KEY LTD., priority 2016, dated 2023)", "key": {"FGF-1": {"tested_on": "FGF-1", "experiment": "Serum level of angiogenic factor by ELISA, patients on dTCApFs", "type": "in vivo, human"}, "B16 cells": {"tested_on": "B16 cells", "experiment": "Melanoma tumors in mice, dTCApFs and doxorubicin", "type": "in vivo, C57bl/6 mice", "conditions": "dTCApFs alone, once a week at 15 mg/kg, FIG. 17", "description": "In order to examine the effect of a combination of dTCApFs and doxorubicin on melanoma tumor volume, the following experiments were performed in mice. C57bl/6 mice (28) were inoculated SC with 0.2 million B16 cells (ATCC) per mouse. B16 melanoma is a murine tumor cell line used for research as a model for human skin cancers. When tumors exceeded a volume of 50 mm^3, the mice were randomly divided into 4 groups, as follows. “Control” group (n=6) was treated with 5% mannitol; “dTCApFs” treated group (n=6) was treated once a week with dTCApFs (at 15 mg/kg); “Dox” treated group (n=6) was treated once a week with doxorubicin (at 3 mg/kg); and dTCApFs+Dox same day” group (n=10) was treated once a week with dTCApFs and doxorubicin (at 15 mg/kg and 3 mg/kg, respectively), when both agents were administered on the same day."}, "angiopoietin-1": {"tested_on": "angiopoietin-1", "experiment": "Serum level of angiogenic factor by ELISA, patients on dTCApFs", "type": "in vivo, human"}, "IL-2": {"tested_on": "IL-2", "experiment": "Serum level of cytokine by ELISA, patients on dTCApFs", "type": "in vivo, human"}, "VEGF-A": {"tested_on": "VEGF-A", "experiment": "Serum level of angiogenic factor by ELISA, patients on dTCApFs", "type": "in vivo, human"}, "[1]": {"tested_on": "human NK cells (CD56+CD16+)", "experiment": "NK cell activation, FACS analysis of CD335 and CD337", "type": "cell-based", "conditions": "treated 24 hours and further 72 hours, FIG. 12"}, "IL-21": {"tested_on": "IL-21", "experiment": "Serum level of cytokine by ELISA, patients on dTCApFs", "type": "in vivo, human"}, "TNF-α": {"tested_on": "TNF-α", "experiment": "Serum level of cytokine by ELISA, patients on dTCApFs", "type": "in vivo, human"}, "GRP78/BiP": {"tested_on": "GRP78/BiP", "experiment": "GRP78/BiP marker blood level by ELISA in treated patients", "type": "in vivo, human"}}, "note": "Part of at least one peptide drawing is inferred or uncertain, most often the ends. Square brackets hold non-standard residues; d marks the D form. Peptide text beside a SMILES is read from it."}
{"smiles": "CC(C)C[C@@H](NC(=O)[C@H](NC(=O)[C@@H](CO)NC(=O)[C@H]1CCCN1C(=O)[C@@H](CC(C)C)NC(=O)[C@@H](Cc1ccccc1)NC(=O)[C@@H](Cc1ccccc1)NC(=O)[C@H](NC(=O)[C@@H](Cc1c[nH]c2ccccc12)NC(=O)[C@H](N)Cc1c[nH]c2ccccc12)[C@H](C)O)[C@H](C)O)C(=O)N[C@H](Cc1c[nH]c2ccccc12)C(=O)N[C@H](CCC(=O)O)C(=O)N[C@H](CCCNC(=N)N)C(=O)N[C@H](CCCCN)C(=O)O", "note": "[dTCApFs, Trp Trp Thr Phe Phe Leu Pro Ser Thr Leu Trp Glu Arg Lys] (H-[dW][dW][dT][dF][dF][dL][dP][dS][dT][dL][dW][dE][dR][dK]-OH; N-terminus and C-terminus assumed)", "values": [{"measurement": "FGF-1, mean change in serum level from pre- to post- treatment with dTCApFs", "setting": "FGF-1; 6 mg/m^2, n = 3", "result": "+120%"}, {"measurement": "FGF-1, mean change in serum level from pre- to post- treatment with dTCApFs", "setting": "FGF-1; 12 mg/m^2, n = 3", "result": "−62", "unit": "%"}, {"measurement": "FGF-1, mean change in serum level from pre- to post- treatment with dTCApFs", "setting": "FGF-1; 24 mg/m^2, n = 3", "result": "−20", "unit": "%"}, {"measurement": "FGF-1, mean change in serum level from pre- to post- treatment with dTCApFs", "setting": "FGF-1; 48 mg/m^2, n = 3", "result": "−27", "unit": "%"}, {"measurement": "FGF-1, mean change in serum level from pre- to post- treatment with dTCApFs", "setting": "FGF-1; 96 mg/m^2, n = 5", "result": "+457%"}, {"measurement": "tumor volume", "setting": "B16 cells", "result": "tumor volume clearly increased"}, {"measurement": "Angioeitin-1, mean change in serum level from pre- to post- treatment with dTCApFs", "setting": "angiopoietin-1; 6 mg/m^2, n = 3", "result": "+960%"}, {"measurement": "Angioeitin-1, mean change in serum level from pre- to post- treatment with dTCApFs", "setting": "angiopoietin-1; 12 mg/m^2, n = 3", "result": "−80", "unit": "%"}, {"measurement": "Angioeitin-1, mean change in serum level from pre- to post- treatment with dTCApFs", "setting": "angiopoietin-1; 24 mg/m^2, n = 3", "result": "−77", "unit": "%"}, {"measurement": "Angioeitin-1, mean change in serum level from pre- to post- treatment with dTCApFs", "setting": "angiopoietin-1; 48 mg/m^2, n = 3", "result": "−50", "unit": "%"}, {"measurement": "Angioeitin-1, mean change in serum level from pre- to post- treatment with dTCApFs", "setting": "angiopoietin-1; 96 mg/m^2, n = 5", "result": "+70%"}, {"measurement": "Il-2, mean change in serum level from pre- to post- treatment with dTCApFs", "setting": "IL-2; 12 mg/m^2, n = 3", "result": "−100", "unit": "%"}, {"measurement": "Il-2, mean change in serum level from pre- to post- treatment with dTCApFs", "setting": "IL-2; 48 mg/m^2, n = 3", "result": "+242%"}, {"measurement": "Il-2, mean change in serum level from pre- to post- treatment with dTCApFs", "setting": "IL-2; 96 mg/m^2, n = 5", "result": "+577%"}, {"measurement": "VEGF-A, mean change in serum level from pre- to post- treatment with dTCApFs", "setting": "VEGF-A; 6 mg/m^2, n = 3", "result": "+265%"}, {"measurement": "VEGF-A, mean change in serum level from pre- to post- treatment with dTCApFs", "setting": "VEGF-A; 12 mg/m^2, n = 3", "result": "−47", "unit": "%"}, {"measurement": "VEGF-A, mean change in serum level from pre- to post- treatment with dTCApFs", "setting": "VEGF-A; 24 mg/m^2, n = 3", "result": "−62", "unit": "%"}, {"measurement": "VEGF-A, mean change in serum level from pre- to post- treatment with dTCApFs", "setting": "VEGF-A; 48 mg/m^2, n = 3", "result": "−72", "unit": "%"}, {"measurement": "VEGF-A, mean change in serum level from pre- to post- treatment with dTCApFs", "setting": "VEGF-A; 96 mg/m^2, n = 5", "result": "−2", "unit": "%"}, {"measurement": "expression of CD335 and CD337 receptors", "setting": "[1]", "result": "an increase in expression of both receptors"}, {"measurement": "Il-21, mean change in serum level from pre- to post- treatment with dTCApFs", "setting": "IL-21; 6 mg/m^2, n = 3", "result": "+100%"}, {"measurement": "Il-21, mean change in serum level from pre- to post- treatment with dTCApFs", "setting": "IL-21; 12 mg/m^2, n = 3", "result": "−61", "unit": "%"}, {"measurement": "Il-21, mean change in serum level from pre- to post- treatment with dTCApFs", "setting": "IL-21; 24 mg/m^2, n = 3", "result": "+84%"}, {"measurement": "Il-21, mean change in serum level from pre- to post- treatment with dTCApFs", "setting": "IL-21; 48 mg/m^2, n = 3", "result": "+1326%"}, {"measurement": "Il-21, mean change in serum level from pre- to post- treatment with dTCApFs", "setting": "IL-21; 96 mg/m^2, n = 5", "result": "+29%"}, {"measurement": "TNF-α, mean change in serum level from pre- to post- treatment with dTCApFs", "setting": "TNF-α; 6 mg/m^2, n = 3", "result": "+4%"}, {"measurement": "TNF-α, mean change in serum level from pre- to post- treatment with dTCApFs", "setting": "TNF-α; 12 mg/m^2, n = 3", "result": "−5", "unit": "%"}, {"measurement": "TNF-α, mean change in serum level from pre- to post- treatment with dTCApFs", "setting": "TNF-α; 24 mg/m^2, n = 3", "result": "+31%"}, {"measurement": "TNF-α, mean change in serum level from pre- to post- treatment with dTCApFs", "setting": "TNF-α; 48 mg/m^2, n = 3", "result": "+74%"}, {"measurement": "TNF-α, mean change in serum level from pre- to post- treatment with dTCApFs", "setting": "TNF-α; 96 mg/m^2, n = 5", "result": "+97%"}, {"measurement": "Serum level of BiP", "setting": "GRP78/BiP; Patient 002, Cohort 1, Cycle 1, Day 1 (baseline, prior to first administration)", "result": 21.30, "unit": "ng/mL"}, {"measurement": "Serum level of BiP", "setting": "GRP78/BiP; Patient 002, Cohort 1, Cycle 1, Day 29", "result": 26.94, "unit": "ng/mL"}, {"measurement": "Serum level of BiP", "setting": "GRP78/BiP; Patient 006, Cohort 2, Cycle 1, Day 1 (baseline, prior to first administration)", "result": 9.85, "unit": "ng/mL"}, {"measurement": "Serum level of BiP", "setting": "GRP78/BiP; Patient 006, Cohort 2, Cycle 1, Day 29", "result": 38.91, "unit": "ng/mL"}, {"measurement": "Serum level of BiP", "setting": "GRP78/BiP; Patient 007, Cohort 2, Cycle 1, Day 1 (baseline, prior to first administration)", "result": 51.03, "unit": "ng/mL"}, {"measurement": "Serum level of BiP", "setting": "GRP78/BiP; Patient 007, Cohort 2, Cycle 1, Day 29", "result": 38.68, "unit": "ng/mL"}, {"measurement": "Serum level of BiP", "setting": "GRP78/BiP; Patient 011, Cohort 2, Cycle 1, Day 1 (baseline, prior to first administration)", "result": 45.78, "unit": "ng/mL"}, {"measurement": "Serum level of BiP", "setting": "GRP78/BiP; Patient 011, Cohort 2, Cycle 1, Day 29", "result": 23.89, "unit": "ng/mL"}, {"measurement": "Serum level of BiP", "setting": "GRP78/BiP; Patient 012, Cohort 3, Cycle 1, Day 1 (baseline, prior to first administration)", "result": 13.81, "unit": "ng/mL"}]}
